Measured values: the supplement of paper PMC10849652
This is one part of the list.

Protein sequences, listed by entry. Tags and fused reporters are not part of them. Lines headed by an entry give the natural chain unless they say otherwise; changes in a name come on top.
UniProt Q7L2H7, whole entry, looked up: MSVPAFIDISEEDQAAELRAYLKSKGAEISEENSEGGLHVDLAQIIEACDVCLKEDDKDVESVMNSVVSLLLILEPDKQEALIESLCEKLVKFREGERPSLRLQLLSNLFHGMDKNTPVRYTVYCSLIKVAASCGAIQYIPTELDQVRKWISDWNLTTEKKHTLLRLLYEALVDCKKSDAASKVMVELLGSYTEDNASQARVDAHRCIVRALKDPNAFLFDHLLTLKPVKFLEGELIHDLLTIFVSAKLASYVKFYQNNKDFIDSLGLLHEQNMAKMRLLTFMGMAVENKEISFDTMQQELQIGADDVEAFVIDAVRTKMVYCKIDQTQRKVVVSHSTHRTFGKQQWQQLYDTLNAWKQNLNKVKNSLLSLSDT
UniProt P09104, whole entry, looked up: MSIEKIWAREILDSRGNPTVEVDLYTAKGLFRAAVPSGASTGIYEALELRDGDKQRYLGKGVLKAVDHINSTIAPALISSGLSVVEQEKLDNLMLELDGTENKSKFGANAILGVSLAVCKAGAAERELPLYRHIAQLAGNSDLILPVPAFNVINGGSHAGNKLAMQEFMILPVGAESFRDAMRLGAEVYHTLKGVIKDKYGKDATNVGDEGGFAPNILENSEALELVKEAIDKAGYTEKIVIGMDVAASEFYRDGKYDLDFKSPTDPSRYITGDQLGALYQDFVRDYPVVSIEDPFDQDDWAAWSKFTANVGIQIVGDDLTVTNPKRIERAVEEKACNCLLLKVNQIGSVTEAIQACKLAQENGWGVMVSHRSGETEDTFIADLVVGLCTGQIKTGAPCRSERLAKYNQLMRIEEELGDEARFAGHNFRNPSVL
UniProt O60841: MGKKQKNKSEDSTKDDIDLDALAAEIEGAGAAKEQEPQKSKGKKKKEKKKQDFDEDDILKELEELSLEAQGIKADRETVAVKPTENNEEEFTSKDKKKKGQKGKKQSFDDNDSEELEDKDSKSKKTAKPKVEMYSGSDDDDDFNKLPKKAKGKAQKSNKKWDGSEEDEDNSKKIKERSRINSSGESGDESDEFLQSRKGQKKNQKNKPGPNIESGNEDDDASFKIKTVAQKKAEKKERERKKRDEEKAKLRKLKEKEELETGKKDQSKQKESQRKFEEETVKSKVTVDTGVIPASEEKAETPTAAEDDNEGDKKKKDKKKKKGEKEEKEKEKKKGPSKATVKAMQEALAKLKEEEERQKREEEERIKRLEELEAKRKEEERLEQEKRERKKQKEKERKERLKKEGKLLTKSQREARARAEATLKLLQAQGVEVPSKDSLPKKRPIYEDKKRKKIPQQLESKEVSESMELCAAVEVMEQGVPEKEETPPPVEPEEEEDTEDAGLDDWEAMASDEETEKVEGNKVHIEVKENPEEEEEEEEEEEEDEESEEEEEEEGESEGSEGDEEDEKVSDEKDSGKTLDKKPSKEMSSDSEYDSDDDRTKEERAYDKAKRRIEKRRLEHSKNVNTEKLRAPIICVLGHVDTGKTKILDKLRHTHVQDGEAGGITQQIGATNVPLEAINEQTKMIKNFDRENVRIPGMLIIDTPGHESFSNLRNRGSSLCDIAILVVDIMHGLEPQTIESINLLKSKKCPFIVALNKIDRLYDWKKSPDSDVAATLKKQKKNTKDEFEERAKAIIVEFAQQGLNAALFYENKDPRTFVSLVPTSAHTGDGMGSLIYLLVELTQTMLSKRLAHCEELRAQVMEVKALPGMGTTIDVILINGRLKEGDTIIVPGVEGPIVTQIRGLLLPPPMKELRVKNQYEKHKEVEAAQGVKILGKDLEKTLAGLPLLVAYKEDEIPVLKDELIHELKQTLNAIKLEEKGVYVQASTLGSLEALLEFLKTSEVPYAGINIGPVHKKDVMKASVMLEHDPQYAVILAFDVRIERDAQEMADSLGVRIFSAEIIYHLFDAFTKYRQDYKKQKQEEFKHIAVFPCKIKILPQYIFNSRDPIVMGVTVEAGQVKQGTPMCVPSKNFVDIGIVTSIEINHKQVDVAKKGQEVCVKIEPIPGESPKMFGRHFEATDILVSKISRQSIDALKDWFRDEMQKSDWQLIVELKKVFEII
UniProt Q96EB1: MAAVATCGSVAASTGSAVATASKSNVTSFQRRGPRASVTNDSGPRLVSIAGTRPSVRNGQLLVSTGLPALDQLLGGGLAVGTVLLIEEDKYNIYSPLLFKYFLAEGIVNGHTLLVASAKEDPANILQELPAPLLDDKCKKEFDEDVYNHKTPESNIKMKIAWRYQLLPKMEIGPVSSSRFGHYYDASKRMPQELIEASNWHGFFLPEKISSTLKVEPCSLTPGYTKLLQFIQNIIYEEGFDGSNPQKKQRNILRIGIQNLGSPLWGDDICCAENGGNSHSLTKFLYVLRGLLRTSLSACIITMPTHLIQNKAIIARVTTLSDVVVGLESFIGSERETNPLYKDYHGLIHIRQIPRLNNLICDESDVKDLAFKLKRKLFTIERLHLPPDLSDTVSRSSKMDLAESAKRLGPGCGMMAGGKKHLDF
UniProt P68104, whole entry, looked up: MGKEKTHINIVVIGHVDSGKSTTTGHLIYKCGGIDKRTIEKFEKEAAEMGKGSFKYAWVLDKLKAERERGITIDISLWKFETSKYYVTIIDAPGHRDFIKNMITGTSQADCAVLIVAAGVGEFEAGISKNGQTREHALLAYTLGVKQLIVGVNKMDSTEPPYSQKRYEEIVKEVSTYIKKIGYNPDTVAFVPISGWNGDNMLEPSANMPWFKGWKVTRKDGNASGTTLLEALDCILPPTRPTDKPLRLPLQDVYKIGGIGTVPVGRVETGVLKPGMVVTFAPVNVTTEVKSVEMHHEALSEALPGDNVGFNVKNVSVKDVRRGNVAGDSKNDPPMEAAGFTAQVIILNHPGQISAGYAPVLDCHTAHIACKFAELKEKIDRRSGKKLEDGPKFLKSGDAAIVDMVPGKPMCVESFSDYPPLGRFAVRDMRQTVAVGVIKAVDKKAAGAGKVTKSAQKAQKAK
UniProt Q14249: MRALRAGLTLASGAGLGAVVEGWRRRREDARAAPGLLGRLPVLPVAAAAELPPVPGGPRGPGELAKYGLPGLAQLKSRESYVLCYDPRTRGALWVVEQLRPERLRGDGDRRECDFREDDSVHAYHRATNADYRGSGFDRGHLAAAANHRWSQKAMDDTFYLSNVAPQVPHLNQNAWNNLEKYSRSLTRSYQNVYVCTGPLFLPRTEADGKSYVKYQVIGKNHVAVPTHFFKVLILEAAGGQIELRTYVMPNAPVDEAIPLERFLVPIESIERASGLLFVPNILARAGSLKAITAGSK
UniProt O75821, whole entry, looked up: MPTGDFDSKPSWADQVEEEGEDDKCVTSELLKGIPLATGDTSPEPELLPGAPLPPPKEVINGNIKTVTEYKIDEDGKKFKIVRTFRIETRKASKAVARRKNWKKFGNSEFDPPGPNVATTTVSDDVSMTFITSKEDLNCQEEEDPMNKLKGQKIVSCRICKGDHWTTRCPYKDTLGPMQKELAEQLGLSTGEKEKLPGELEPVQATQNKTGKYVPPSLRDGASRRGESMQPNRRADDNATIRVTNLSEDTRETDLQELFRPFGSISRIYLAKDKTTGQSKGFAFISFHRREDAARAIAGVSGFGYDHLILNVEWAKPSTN
UniProt Q9HC35: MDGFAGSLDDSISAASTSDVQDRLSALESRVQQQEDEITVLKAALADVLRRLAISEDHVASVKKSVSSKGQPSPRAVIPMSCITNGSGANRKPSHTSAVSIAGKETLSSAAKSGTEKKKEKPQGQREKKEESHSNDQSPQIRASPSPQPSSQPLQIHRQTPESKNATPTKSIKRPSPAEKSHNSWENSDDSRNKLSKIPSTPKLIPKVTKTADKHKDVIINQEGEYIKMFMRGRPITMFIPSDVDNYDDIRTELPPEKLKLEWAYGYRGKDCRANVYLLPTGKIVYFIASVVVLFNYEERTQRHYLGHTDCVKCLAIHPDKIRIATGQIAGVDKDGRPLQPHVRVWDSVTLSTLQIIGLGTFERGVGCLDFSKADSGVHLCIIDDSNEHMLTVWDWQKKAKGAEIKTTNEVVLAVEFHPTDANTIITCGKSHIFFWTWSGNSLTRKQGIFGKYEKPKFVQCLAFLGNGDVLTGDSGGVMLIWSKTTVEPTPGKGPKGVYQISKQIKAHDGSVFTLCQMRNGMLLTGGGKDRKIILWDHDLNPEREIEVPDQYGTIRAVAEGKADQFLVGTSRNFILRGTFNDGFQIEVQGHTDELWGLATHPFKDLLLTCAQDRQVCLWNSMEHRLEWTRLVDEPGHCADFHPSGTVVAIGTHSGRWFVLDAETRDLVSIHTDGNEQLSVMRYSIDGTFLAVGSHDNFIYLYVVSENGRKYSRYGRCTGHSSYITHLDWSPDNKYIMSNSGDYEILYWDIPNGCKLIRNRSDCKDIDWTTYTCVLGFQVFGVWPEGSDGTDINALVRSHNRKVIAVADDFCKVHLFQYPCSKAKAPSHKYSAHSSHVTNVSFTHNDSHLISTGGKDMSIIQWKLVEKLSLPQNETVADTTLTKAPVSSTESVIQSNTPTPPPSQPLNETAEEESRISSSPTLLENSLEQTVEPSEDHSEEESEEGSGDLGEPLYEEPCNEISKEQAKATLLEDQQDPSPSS
UniProt Q08426: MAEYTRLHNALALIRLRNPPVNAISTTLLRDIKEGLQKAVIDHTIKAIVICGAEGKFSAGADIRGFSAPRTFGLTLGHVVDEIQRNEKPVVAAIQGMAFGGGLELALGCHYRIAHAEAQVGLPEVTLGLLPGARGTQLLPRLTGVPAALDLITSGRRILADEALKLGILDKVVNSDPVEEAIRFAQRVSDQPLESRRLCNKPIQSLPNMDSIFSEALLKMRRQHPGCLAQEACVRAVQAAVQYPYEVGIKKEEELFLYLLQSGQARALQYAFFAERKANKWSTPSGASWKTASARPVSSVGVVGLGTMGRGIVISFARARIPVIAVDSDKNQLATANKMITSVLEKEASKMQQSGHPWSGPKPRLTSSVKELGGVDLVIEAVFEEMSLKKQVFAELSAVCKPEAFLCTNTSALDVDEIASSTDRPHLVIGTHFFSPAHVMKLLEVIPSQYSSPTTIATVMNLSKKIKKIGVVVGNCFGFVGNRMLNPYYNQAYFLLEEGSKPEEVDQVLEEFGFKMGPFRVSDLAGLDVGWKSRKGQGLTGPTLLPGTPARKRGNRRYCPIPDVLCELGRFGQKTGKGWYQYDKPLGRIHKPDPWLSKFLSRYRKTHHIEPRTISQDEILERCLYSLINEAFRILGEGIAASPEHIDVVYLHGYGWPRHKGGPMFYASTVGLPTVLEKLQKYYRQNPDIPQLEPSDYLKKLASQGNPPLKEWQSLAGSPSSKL
UniProt O43324: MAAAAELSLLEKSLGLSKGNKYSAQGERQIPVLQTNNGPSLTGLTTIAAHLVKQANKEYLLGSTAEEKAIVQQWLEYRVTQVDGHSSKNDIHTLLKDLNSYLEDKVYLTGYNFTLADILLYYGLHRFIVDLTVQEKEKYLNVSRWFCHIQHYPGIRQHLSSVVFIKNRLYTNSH
UniProt Q5VTE0, whole entry, looked up: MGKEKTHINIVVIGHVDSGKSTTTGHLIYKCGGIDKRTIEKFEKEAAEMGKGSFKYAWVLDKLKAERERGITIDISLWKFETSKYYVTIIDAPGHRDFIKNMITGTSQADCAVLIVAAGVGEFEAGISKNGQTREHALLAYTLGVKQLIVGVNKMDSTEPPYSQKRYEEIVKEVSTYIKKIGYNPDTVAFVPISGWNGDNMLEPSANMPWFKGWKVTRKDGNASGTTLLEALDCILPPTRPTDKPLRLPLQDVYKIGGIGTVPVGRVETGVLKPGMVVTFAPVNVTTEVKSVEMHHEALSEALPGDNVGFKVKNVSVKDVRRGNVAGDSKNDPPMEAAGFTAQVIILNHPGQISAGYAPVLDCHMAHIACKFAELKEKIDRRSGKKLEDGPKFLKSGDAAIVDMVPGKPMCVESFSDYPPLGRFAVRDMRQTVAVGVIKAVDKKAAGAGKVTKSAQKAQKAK
UniProt Q9UBQ5, whole entry, looked up: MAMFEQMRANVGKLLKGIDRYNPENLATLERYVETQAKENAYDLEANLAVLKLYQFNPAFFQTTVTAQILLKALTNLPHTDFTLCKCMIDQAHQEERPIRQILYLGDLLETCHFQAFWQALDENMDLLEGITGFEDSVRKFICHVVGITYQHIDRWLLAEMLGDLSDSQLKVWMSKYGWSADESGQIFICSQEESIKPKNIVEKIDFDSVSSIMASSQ
UniProt Q13542: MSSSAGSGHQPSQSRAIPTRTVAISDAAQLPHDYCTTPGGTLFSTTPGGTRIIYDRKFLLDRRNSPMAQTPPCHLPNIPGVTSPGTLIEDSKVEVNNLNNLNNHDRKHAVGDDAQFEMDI
UniProt Q9P0I2: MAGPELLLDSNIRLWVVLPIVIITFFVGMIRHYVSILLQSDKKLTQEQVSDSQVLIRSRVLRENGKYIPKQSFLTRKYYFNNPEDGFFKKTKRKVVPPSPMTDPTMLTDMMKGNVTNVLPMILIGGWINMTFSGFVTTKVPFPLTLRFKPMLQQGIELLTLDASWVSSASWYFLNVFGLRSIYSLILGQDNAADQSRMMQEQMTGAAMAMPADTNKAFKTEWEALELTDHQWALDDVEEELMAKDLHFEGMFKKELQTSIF

Tests used:
Assay in all cases: log2 fold change, soluble protein after heating vs DMSO (PISA); higher = thermal stabilisation; K562 cells, 10 uM, 30 min; active = over 0.2 and 3.5 SD of the protein, either way, in both replicates (recomputed)
saracatinib = compound: CN1CCN(CCOc2cc(OC3CCOCC3)c3c(Nc4c(Cl)ccc5c4OCO5)ncnc3c2)CC1 [saracatinib]
Outline: (§1)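 Aliquots of K562 cells (2×10^6 cells/mL) treated with 10 μM compound for 30 min were heated for 3 min over 48°C-58°C. After pooling and extraction in PBS with 0.5% NP-40 at 4°C, soluble protein from a 21,000xg, 90 min spin was quantified by TMTpro 16plex LC-MS/MS with channel sums equalised. Thermal stability is expressed against control samples, from duplicates, as a log2 fold change.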

sotrastaurin = compound: CN1CCN(c2nc(C3=C(c4c[nH]c5ccccc45)C(=O)NC3=O)c3ccccc3n2)CC1 [sotrastaurin]
Outline: as §1

alvocidib = compound: CN1CC[C@H](c2c(O)cc(O)c3c(=O)cc(-c4ccccc4Cl)oc23)[C@H](O)C1 [alvocidib]
Outline: as §1

Tubastatin A = compound: CN1CCc2c(c3ccccc3n2Cc2ccc(C(=O)NO)cc2)C1 [Tubastatin A]
Outline: as §1

[1] = compound: CNC(=O)C1=CC=CC=C1NC2=NC(=NC=C2Cl)NC3=C(C=C(C=C3)N4CCOCC4)OC
Outline: as §1

defactinib = compound: CNC(=O)c1ccc(Nc2ncc(C(F)(F)F)c(NCc3nccnc3N(C)S(C)(=O)=O)n2)cc1 [defactinib]
Outline: as §1

rucaparib = compound: CNCc1ccc(-c2[nH]c3cc(F)cc4c3c2CCNC4=O)cc1 [rucaparib]
Outline: as §1

[2] = compound: CNc1nc(-c2ccc3c(N)n[nH]c3c2)cc(N2C[C@@H](C(=O)NC3CCCCC3)CC[C@H]2C)n1
Outline: as §1

encorafenib = compound: COC(=O)N[C@@H](C)CNc1nccc(-c2cn(C(C)C)nc2-c2cc(Cl)cc(NS(C)(=O)=O)c2F)n1 [encorafenib]
Outline: as §1

[3] = compound: COC(=O)[C@H](CCSC)NC(=O)C1=C(C=C(C=C1)NC[C@H](CS)N)C2=CC=CC=C2
Outline: as §1

[4] = compound: COC1=CC=C(C=C1)CN2C=CC3=C2C=C(C=C3)C(=O)NO
Outline: as §1

filanesib = compound: CON(C)C(=O)N1N=C(c2cc(F)ccc2F)S[C@@]1(CCCN)c1ccccc1 [filanesib]
Outline: as §1

zotarolimus = compound: CO[C@H]1C[C@@H]2CC[C@@H](C)[C@@](O)(O2)C(=O)C(=O)N2CCCC[C@H]2C(=O)O[C@H]([C@H](C)C[C@@H]2CC[C@H](n3cnnn3)[C@H](OC)C2)CC(=O)[C@H](C)/C=C(\C)[C@@H](O)[C@@H](OC)C(=O)[C@H](C)C[C@H](C)/C=C/C=C/C=C/1C [zotarolimus]
Outline: as §1

idasanutlin = compound: COc1cc(C(=O)O)ccc1NC(=O)[C@@H]1N[C@@H](CC(C)(C)C)[C@](C#N)(c2ccc(Cl)cc2F)[C@H]1c1cccc(Cl)c1F [idasanutlin]
Outline: as §1

alisertib = compound: COc1cc(Nc2ncc3c(n2)-c2ccc(Cl)cc2C(c2c(F)cccc2OC)=NC3)ccc1C(=O)O [alisertib]
Outline: as §1

[5] = compound: COc1cc2nc(-c3cc(F)ccc3O)nc(N[C@@H]3CNC[C@H]3C(C)(C)O)c2cc1OC
Outline: as §1

gefitinib = compound: COc1cc2ncnc(Nc3ccc(F)c(Cl)c3)c2cc1OCCCN1CCOCC1 [gefitinib]
Outline: as §1

[6] = compound: COc1cccc2cc(-c3nc([C@H]4CC[C@H](C(=O)O)CC4)n4ncnc(N)c34)[nH]c12
Outline: as §1

lapatinib = compound: CS(=O)(=O)CCNCc1ccc(-c2ccc3ncnc(Nc4ccc(OCc5cccc(F)c5)c(Cl)c4)c3c2)o1 [lapatinib]
Outline: as §1

pictilisib = compound: CS(=O)(=O)N1CCN(Cc2cc3nc(-c4cccc5[nH]ncc45)nc(N4CCOCC4)c3s2)CC1 [pictilisib]
Outline: as §1

Measured: log2 fold change

EIF3M (UniProt Q7L2H7)
inactive: saracatinib 0.027 | sotrastaurin -0.173 | alvocidib -0.06 | Tubastatin A 0.027 | [1] 0.015 | defactinib -0.072 | rucaparib 0.096 | [2] -0.011 | encorafenib 0.075 | [3] -0.037 | [4] 0.096 | filanesib 0.035 | zotarolimus 0.1 | idasanutlin 0.03 | alisertib -0.001 | [5] 0.007 | gefitinib -0.026 | [6] -0.14 | lapatinib 0.005 | pictilisib 0.045

ENO2 (UniProt P09104)
inactive: saracatinib 0.052 | sotrastaurin 0.041 | alvocidib -0.017 | Tubastatin A -0.008 | [1] -0.066 | defactinib -0.002 | rucaparib 0.011 | [2] -0.031 | encorafenib -0.023 | [3] 0.013 | [4] 0.043 | filanesib -0.026 | zotarolimus -0.055 | idasanutlin -0.001 | alisertib -0.056 | [5] -0.02 | gefitinib -0.01 | [6] 0.028 | lapatinib 0.007 | pictilisib 0.013

EIF5B (UniProt O60841)
inactive: saracatinib -0.016 | sotrastaurin -0.025 | alvocidib 0.016 | Tubastatin A 0.034 | [1] -0.018 | defactinib 0.07 | rucaparib 0.072 | [2] 0.082 | encorafenib 0.069 | [3] -0.028 | [4] -0.031 | filanesib 0.05 | zotarolimus 0.046 | idasanutlin 0.022 | alisertib -0.045 | [5] 0.024 | gefitinib -0.003 | [6] -0.082 | lapatinib 0.037 | pictilisib -0.044

ELP4 isoform 3 (UniProt Q96EB1)
inactive: saracatinib 0.024 | sotrastaurin 0.022 | alvocidib -0.039 | Tubastatin A -0.018 | [1] -0.033 | defactinib -0.018 | rucaparib -0.047 | [2] -0.03 | encorafenib 0.009 | [3] 0.01 | [4] 0.048 | filanesib 0.004 | zotarolimus -0.022 | idasanutlin -0.011 | alisertib -0.053 | [5] -0.018 | gefitinib -0.034 | [6] 0.074 | lapatinib 0.081 | pictilisib -0.03

EEF1A1 (UniProt P68104)
inactive: saracatinib 0.093 | sotrastaurin -0.082 | Tubastatin A -0.096 | [1] 0.007 | defactinib -0.079 | rucaparib 0.146 | [2] 0.102 | encorafenib -0.009 | [3] -0.059 | [4] 0.081 | filanesib -0.119 | zotarolimus 0.182 | idasanutlin -0.086 | alisertib -0.347 | [5] -0.216 | gefitinib -0.029 | [6] -0.034 | lapatinib 0.1
active: alvocidib -0.885

ENDOG (UniProt Q14249)
inactive: saracatinib -0.022 | sotrastaurin -0.002 | alvocidib 0.007 | Tubastatin A 0.019 | [1] 0.02 | defactinib 0.04 | rucaparib 0.004 | [2] -0.028 | encorafenib 0.02 | [3] -0.037 | [4] 0.019 | filanesib -0.045 | zotarolimus -0.015 | idasanutlin -0.089 | alisertib -0.016 | [5] 0.102 | gefitinib 0.04 | [6] -0.039 | lapatinib 0 | pictilisib -0.013

EIF3G (UniProt O75821)
inactive: saracatinib -0.068 | sotrastaurin -0.08 | alvocidib -0.026 | Tubastatin A -0.02 | [1] -0.043 | defactinib -0.034 | rucaparib 0.071 | [2] 0.032 | encorafenib 0.039 | [3] -0.017 | [4] -0.035 | filanesib 0.059 | zotarolimus 0.02 | idasanutlin -0.05 | alisertib -0.04 | [5] -0.112 | gefitinib -0.027 | [6] -0.041 | lapatinib -0.037 | pictilisib -0.035

EML4 (UniProt Q9HC35)
inactive: saracatinib -0.08 | sotrastaurin -0.141 | alvocidib 0.112 | Tubastatin A 0.056 | [1] 0.028 | defactinib 0.131 | rucaparib 0.217 | [2] 0.155 | encorafenib 0.133 | [3] -0.091 | [4] 0.046 | filanesib 0.079 | zotarolimus 0.004 | idasanutlin 0.05 | alisertib 0.041 | [5] 0.125 | gefitinib -0.001 | [6] -0.141 | lapatinib -0.007 | pictilisib -0.004

EHHADH (UniProt Q08426)
inactive: saracatinib -0.008 | sotrastaurin 0.045 | alvocidib -0.003 | Tubastatin A 0.042 | [1] -0.018 | defactinib -0.037 | rucaparib 0.017 | [2] -0.011 | encorafenib 0.032 | [3] 0.022 | [4] -0.035 | filanesib -0.012 | zotarolimus -0.001 | idasanutlin -0.027 | alisertib -0.021 | [5] 0.093 | gefitinib 0.019 | [6] 0.001 | lapatinib -0.024 | pictilisib 0.002

EEF1E1 (UniProt O43324)
inactive: saracatinib -0.048 | sotrastaurin -0.046 | alvocidib 0.039 | Tubastatin A 0.029 | [1] -0.032 | defactinib 0.068 | rucaparib 0.201 | [2] 0.062 | encorafenib 0.1 | [3] -0.073 | [4] -0.096 | filanesib 0.07 | zotarolimus 0.01 | idasanutlin 0.056 | alisertib -0.019 | [5] 0.021 | gefitinib 0 | [6] -0.032 | lapatinib 0 | pictilisib -0.067

Retrieved one by one from the entries so far, 2 records:
EEF1E1 (UniProt O43324)
inactive: saracatinib -0.048 | sotrastaurin -0.046 | alvocidib 0.039 | Tubastatin A 0.029 | [1] -0.032 | defactinib 0.068 | rucaparib 0.201 | [2] 0.062 | encorafenib 0.1 | [3] -0.073 | [4] -0.096 | filanesib 0.07 | zotarolimus 0.01 | idasanutlin 0.056 | alisertib -0.019 | [5] 0.021 | gefitinib 0 | [6] -0.032 | lapatinib 0 | pictilisib -0.067

EML4 (UniProt Q9HC35)
inactive: saracatinib -0.08 | sotrastaurin -0.141 | alvocidib 0.112 | Tubastatin A 0.056 | [1] 0.028 | defactinib 0.131 | rucaparib 0.217 | [2] 0.155 | encorafenib 0.133 | [3] -0.091 | [4] 0.046 | filanesib 0.079 | zotarolimus 0.004 | idasanutlin 0.05 | alisertib 0.041 | [5] 0.125 | gefitinib -0.001 | [6] -0.141 | lapatinib -0.007 | pictilisib -0.004

(next part)

EEF1A1P5 (UniProt Q5VTE0)
inactive: saracatinib 0.009 | sotrastaurin 0.032 | alvocidib 0.001 | Tubastatin A -0.031 | [1] -0.058 | defactinib -0.005 | rucaparib -0.077 | [2] 0 | encorafenib 0.005 | [3] 0.031 | [4] -0.005 | filanesib -0.041 | zotarolimus -0.017 | idasanutlin -0.025 | alisertib 0.013 | [5] -0.003 | gefitinib -0.005 | [6] 0.097 | lapatinib -0.036 | pictilisib -0.018

EIF3K (UniProt Q9UBQ5)
inactive: saracatinib 0.058 | sotrastaurin -0.097 | alvocidib -0.041 | Tubastatin A -0.016 | [1] -0.039 | defactinib 0.037 | rucaparib -0.013 | [2] 0.007 | encorafenib 0.014 | [3] -0.052 | [4] -0.089 | filanesib -0.072 | zotarolimus 0.113 | idasanutlin -0.005 | alisertib -0.041 | [5] -0.035 | gefitinib 0.001 | [6] -0.011 | lapatinib 0.034 | pictilisib -0.043

EIF4EBP2 (UniProt Q13542)
inactive: saracatinib -0.045 | sotrastaurin -0.019 | alvocidib -0.081 | Tubastatin A 0.128 | [1] 0.014 | defactinib 0.065 | rucaparib -0.018 | [2] -0.108 | encorafenib -0.057 | [3] 0.153 | [4] -0.063 | filanesib 0.05 | zotarolimus -0.167 | idasanutlin -0.01 | alisertib 0.016 | [5] -0.15 | gefitinib 0.066 | [6] 0.204 | lapatinib -0.1 | pictilisib 0.035

ENOSF1 (UniProt Q7L5Y1)
inactive: saracatinib -0.014 | sotrastaurin 0.015 | alvocidib 0.052 | Tubastatin A 0.005 | [1] 0.003 | defactinib 0.001 | rucaparib 0.005 | [2] -0.031 | encorafenib -0.08 | [3] 0.045 | [4] -0.024 | filanesib 0.121 | zotarolimus 0.013 | idasanutlin 0.028 | alisertib 0 | [5] -0.007 | gefitinib 0.035 | [6] 0.06 | lapatinib 0 | pictilisib 0.183

EMC3 (UniProt Q9P0I2)
inactive: saracatinib -0.004 | sotrastaurin 0.016 | alvocidib -0.04 | Tubastatin A 0.002 | [1] 0.002 | defactinib -0.057 | rucaparib -0.023 | [2] -0.016 | encorafenib 0.008 | [3] -0.019 | [4] -0.068 | filanesib -0.065 | zotarolimus 0.022 | idasanutlin -0.063 | alisertib -0.026 | [5] 0.082 | gefitinib 0.032 | [6] 0.034 | lapatinib -0.002 | pictilisib -0.016
